No constants are given. Whether binding was seen depends on the method and setting. In cells and extracts the contact can be indirect. Some entries that bind do so weakly or less than the wild type.
Biological target: T1, FAM50A (family with sequence similarity 50 member A) (human (endogenous in U-87)) (UniProt Q14320)
T1 sequence: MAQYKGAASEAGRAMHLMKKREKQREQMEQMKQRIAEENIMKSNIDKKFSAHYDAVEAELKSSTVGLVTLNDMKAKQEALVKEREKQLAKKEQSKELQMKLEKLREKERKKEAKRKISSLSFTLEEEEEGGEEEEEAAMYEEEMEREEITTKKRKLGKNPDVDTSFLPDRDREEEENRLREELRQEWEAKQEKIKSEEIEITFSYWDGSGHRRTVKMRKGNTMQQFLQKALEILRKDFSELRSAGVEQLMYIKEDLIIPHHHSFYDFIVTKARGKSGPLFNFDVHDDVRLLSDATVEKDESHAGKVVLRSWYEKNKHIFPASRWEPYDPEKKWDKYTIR
Assay: co-IP; semi-native co-IP: U-87 cells transfected with V5-tagged partner, harvested 60 h post-transfection in IP lysis buffer (25 mM Tris, 150 mM NaCl, 1 mM EDTA, 1% NP-40, 5% glycerol); endogenous FAM50A immunoprecipitated with anti-FAM50A antibody overnight at 4 °C on protein A/G PLUS-agarose; washes with 300 mM NaCl, 0.1% Triton X-100; partner detected by anti-V5 blot

The chains behind the UniProt entries cited, without tags or fusion partners.
UniProt Q9UJV9: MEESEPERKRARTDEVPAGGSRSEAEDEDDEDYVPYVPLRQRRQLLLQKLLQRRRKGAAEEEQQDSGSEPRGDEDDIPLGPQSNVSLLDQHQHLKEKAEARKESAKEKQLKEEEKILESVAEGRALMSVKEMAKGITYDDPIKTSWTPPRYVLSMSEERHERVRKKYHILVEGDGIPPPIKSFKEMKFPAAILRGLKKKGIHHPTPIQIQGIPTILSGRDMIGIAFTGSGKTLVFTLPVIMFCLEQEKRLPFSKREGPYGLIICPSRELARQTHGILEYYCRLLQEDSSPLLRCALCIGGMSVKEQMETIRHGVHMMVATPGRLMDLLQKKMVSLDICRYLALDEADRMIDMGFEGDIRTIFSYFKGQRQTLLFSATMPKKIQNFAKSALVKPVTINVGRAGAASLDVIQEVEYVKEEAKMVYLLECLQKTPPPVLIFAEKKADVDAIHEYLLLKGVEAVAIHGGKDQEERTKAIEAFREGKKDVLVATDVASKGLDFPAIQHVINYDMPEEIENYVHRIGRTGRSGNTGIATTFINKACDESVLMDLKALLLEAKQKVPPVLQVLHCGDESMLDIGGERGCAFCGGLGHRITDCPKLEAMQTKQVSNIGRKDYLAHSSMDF

binding: binds
Substance: V5-tagged DDX41 (from UniProt Q9UJV9 1-622)

From article PMC7378245
